According to PubChem BioAssay AID504444 (National Center for Advancing Translational Sciences (NCATS), 2011):
Where “and” joins values, the source holds several entries; their conditions need not be identical. Equal entries are not always repeated. The whole screen tested about 360,000 compounds, of which about 7,500 (2.1%) were called active. Inconclusive means that the source gave no clear call. Such entries were picked first, then a sample of the others. Calls come from the whole dose curve; as a rule, active = well fitted inhibition curve with a large enough effect; inconclusive = small, poorly fitted or top-dose-only effect, or effect the other way; inactive = flat fitted curve, though single readings scatter. Potencies of inconclusive entries are doubtful fits and often do not repeat.

assay: Nrf2 qHTS screen for inhibitors; settings: A549 ARE-Fluc reporter, luciferase luminescence, 18-24 h; series mostly up to 46 µM; note: nearly all actives have a fitted effect of over 60% in size
Method in brief: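 Two sequential reads on A549 ARE_Fluc cells exposed to compound for 18-24 h: a CellTiter-Fluor fluorescence read for viability, then a luciferase luminescence read for Nrf2/ARE activity.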
Potency is the fitted concentration of half-maximal effect.

| SMILES | Potency |
| --- | --- |
| COCCCn1c(=O)/c(=C\c2ccccc2OC(C)C)s/c1=C(/C#N)C(=O)Nc1ccc(C(=O)O)cc1 | inconclusive: 20.6 µM [falling, single point] |
| CC1CCC(NC(=O)c2cc(S(=O)(=O)N(C)C)ccc2N2CCCC2)CC1 (stereo unspecified) | inconclusive: 18.4 µM [activator, single point] |
| Brc1cccc(OCCSc2ncccn2)c1 | inconclusive: 8.2 µM [activator, partial curve] |
| CC(=O)Nc1ccc(-c2csc(NCCc3ccccc3)n2)cc1 | inconclusive: 23.1 µM [falling, partial curve, poor fit] |
| CCn1c(=O)c2cc(C(=O)NCCc3cc(OC)ccc3OC)sc2c2ccccc21 | inconclusive: 2.31 µM [falling, partial curve, poor fit] |
| CCCCN(CC)CCNC(=O)c1cc2c(=O)oc3ccc(C)cc3c2s1 | inactive |
| O=C(Nc1nnc(C2CC2)s1)c1cc(S(=O)(=O)N2CCN(c3ccccc3)CC2)ccc1Cl | inactive |
| O=C(Cc1ccc(Br)cc1)Nc1cccc(-c2cn3c(n2)SCC3)c1 | inconclusive: 23.1 µM [falling, single point] |
| CC(C)[C@H](NS(=O)(=O)c1ccc2c(c1)OCCO2)C(=O)OCC(=O)Nc1ccccc1 | inconclusive: 13 µM [activator, partial curve, poor fit] |
| CC(C)(C)C(=O)N1CCN(c2ccnc3cc(Cl)ccc23)CC1 | active: 8.2 µM |
| C#CCCc1cocc1/C=[N+](\[O-])c1ccc(C(=O)OCC)cc1 | inconclusive: 9.2 µM [activator, partial curve] |
| O=C(CN1C(=O)CC(c2ccco2)Sc2ccccc21)NC1CCCCC1 (stereo unspecified) | inactive |
| c1ccc(COc2cncc(-c3cccnc3)c2)cc1 | inconclusive: 11.6 µM [falling, partial curve] |
| COc1ccc(C(=S)N2CCN(C)CC2)cc1Br | inconclusive: 29.1 µM [activator, single point] |
| O=C(Cn1c(=O)n(-c2cccc(Cl)c2)c(=O)c2sc3ccccc3c21)N1CCCC1 | inconclusive: 14.6 µM [falling, partial curve, poor fit] |
| Cc1cc(C)cc(-n2c(C)cc(/C=N/NC(=O)CSc3ncccn3)c2C)c1 | inconclusive: 13 µM [falling, partial curve, poor fit] |
| Cn1cccc1C(=O)NNC(=O)c1ccccc1Br | inconclusive: 0.92 µM [activator, full curve] |
| Cc1cc(C)cc(N(C(=O)c2csnn2)C(C(=O)NC2CCCC2)c2ccccn2)c1 (stereo unspecified) | inactive |
| O=C(Nc1ccc(N2CCCC2)cc1)c1ccccc1F | inconclusive: 1.84 µM [activator, partial curve, poor fit] |
| O=C(COc1ccccc1)OCC(=O)c1ccc(O)cc1O | inactive |
| Cc1cccc(C(=O)N2CCCC(CCC(=O)N3CCN(c4ccccn4)CC3)C2)c1 (stereo unspecified) | inconclusive: 29.1 µM [falling, single point] |
| Cc1cccc(-n2c(-c3ccccc3)cn3c4c(=O)[nH]c(=O)n(C)c4nc23)c1 | inactive |

| SMILES | Potency |
| --- | --- |
| Cc1ccc(NC(=O)COc2ccccc2[N+](=O)[O-])nc1 | inconclusive: 1.3 µM [activator, full curve] |
| COc1ccc(NC(=O)Cn2nnc(-c3ccccc3NS(=O)(=O)c3ccc(OC)cc3)n2)cc1 | inactive |
| CC(=O)c1ccc(N2CCN(C(=S)Nc3ccccc3)CC2)cc1 | inconclusive: 16.4 µM [falling, partial curve, poor fit] |
| Cc1cc(C)c(Cn2c3ccccc3c3cnn(CC(=O)N4CCCCCC4)c(=O)c32)c(C)c1 | inactive |
| Cc1cccc(C)c1OCC(=O)Nc1nc(-c2ccc(Br)cc2)ns1 | inconclusive: 29.1 µM [falling, single point] |
| CCOC(=O)C1=C(C)NC2=C(C(=O)CCC2)C1c1cn(Cc2ccc(Cl)cc2Cl)nc1-c1ccccc1 (stereo unspecified) | inconclusive: 29.1 µM [falling, single point] |
| CC(C)(C)c1ccc(OCc2nc(-c3ccccn3)no2)c(Br)c1 | inconclusive: 0.731 µM [activator, full curve, poor fit] |
| CCCCN(CC)CCNC(=O)Cn1cnc2sc(C)c(S(=O)(=O)N3CCOCC3)c2c1=O | inconclusive: 32.6 µM [activator, partial curve, poor fit] |
| COc1ccc(OC)c(C2C/C(=N/O)C(C)C(c3cc(OC)ccc3OC)N2)c1 (stereo unspecified) | inconclusive: 2.59 µM [activator, partial curve] |
| COC(=O)c1ccc(Cn2cnc3c(sc4nc(N5CCOCC5)c5c(c43)CCCC5)c2=O)o1 | inconclusive: 2.31 µM [falling, partial curve, poor fit] |
| COc1ccc(SC[C@H](CC(C)C)N2CCN(C)CCC2=O)cc1 | inconclusive: 14.6 µM [activator, partial curve] |
| CC(O)c1cccc(NC(=O)CCCc2ccccc2)c1 (stereo unspecified) | inconclusive: 2.59 µM [activator, full curve, poor fit] |
| O=C(NCC(c1cccs1)N1CCOCC1)c1ccccc1NS(=O)(=O)c1ccc(Cl)cc1 (stereo unspecified) | inconclusive: 16.4 µM [falling, single point] |
| COC(=O)c1c(NC(=O)c2ccc(C)o2)sc2c1CCCCC2 | inconclusive: 20.6 µM [activator, partial curve] |
| CCN1C(=O)/C(=C\N(C)C)S/C1=N\S(=O)(=O)c1ccccc1 | inconclusive: 11.6 µM [falling, partial curve, poor fit] |
| CN(CC1CCCO1)S(=O)(=O)c1ccc(C(=O)Nc2ccc([N+](=O)[O-])cc2)cc1 (stereo unspecified) | inconclusive: 29.1 µM [falling, single point] |
| CC(C)Nc1nc(-c2ccccn2)nc(-c2ccccc2)c1C#N | inconclusive: 2.06 µM [falling, partial curve, poor fit] |
| O=C(NC1CCN(S(=O)(=O)c2ccccc2)CC1)c1cccc(F)c1 | inconclusive: 0.206 µM [falling, full curve] |
| COc1ccc(NC(=O)CCc2nc3ccccc3c(=O)[nH]2)cc1S(=O)(=O)N1CCCCC1 | inconclusive: 20.6 µM [falling, partial curve] |
| O=C(c1ccc2c3c(cccc13)CC2)N1CCN(c2ncccn2)CC1 | inconclusive: 25.9 µM [falling, single point] |
| COc1ccccc1NS(=O)(=O)c1ccc(NN=C2CCCCC2)c([N+](=O)[O-])c1 | inconclusive: 25.9 µM [falling, single point] |
| Cc1nc(-c2c(C(=O)NNC(=O)Nc3c(C)cccc3C)noc2C)cs1 | inactive |

| SMILES | Potency |
| --- | --- |
| CCn1c(SCC(=O)c2ccccc2)nnc1-c1cccnc1 | inconclusive: 11.6 µM [activator, partial curve, poor fit] |
| O=C(Nc1ccccn1)c1ccc(S(=O)(=O)N2CCCCCC2)cc1 | inactive |
| COc1cc(OC)cc(C(=O)N2CCN(C3CCN(Cc4ccccc4)CC3)CC2)c1 | inactive |
| Cc1ccc(NC(=O)CSc2nc3ncccc3[nH]2)cc1F | inconclusive: 29.1 µM [activator, single point] |
| COC(=O)[C@H](CCSC)NC(=O)N1CCC(C)CC1 | inactive |
| Nc1cccc(-c2cn3cccnc3n2)c1 | inconclusive: 0.82 µM [activator, full curve, poor fit] |
| Cn1c(SCC(=O)Nc2ccccc2F)nc2c(c1=O)SCC2 | inconclusive: 13 µM [falling, partial curve] |
| COC(=O)Cn1c(=NC(=O)c2ccc(S(=O)(=O)N3CCc4ccccc4C3)cc2)sc2cc(OC)ccc21 | inactive |
| COc1ccccc1CN1CCN(Cc2ccc3ccccc3c2)CC1 | inactive |
| O=C(c1ccc2c(c1)CCN2S(=O)(=O)c1ccccc1)N1CCN(c2ccc(F)cc2)CC1 | inconclusive: 29.1 µM [falling, single point] and inconclusive: 25.9 µM [falling, single point] |
| Nc1[nH]ncc1-c1ccccc1 | inactive |
| CCc1cc2c(=O)n(-c3ccc(C)cc3)cnc2s1 | inconclusive: 6.51 µM [activator, single point] |
| CN(C(=S)NC(=O)c1ccc(Br)o1)c1ccccc1 | inconclusive: 6.51 µM [activator, full curve] |
| COC(=O)CCCCCN1C(=O)NC(c2ccc(-c3ccccc3)cc2)C(C(=O)OCc2ccccc2)=C1C (stereo unspecified) | inconclusive: 29.1 µM [falling, single point] |
| CC1=C(C(=O)NC2CCCc3c2cnn3-c2cccc(C)c2C)OCCO1 (stereo unspecified) | active: 7.31 µM |
| COCCNC(=O)c1cccc(OC2CCN(Cc3ccc(F)cc3OC)CC2)c1 | inconclusive: 20.6 µM [falling, single point] |
| O=C1c2nccnc2C(=O)N1c1ccc(F)cc1 | inconclusive: 16.4 µM [activator, single point] |
| Cc1cccc(CN2CCC(C(=O)Nc3cccc(-c4cccc(F)c4)c3)CC2)n1 | inconclusive: 29.1 µM [falling, single point] |
| CCOC(=O)Cn1cnc2c(nnn2-c2ccc(F)cc2)c1=O | inactive |
| CC(C)(C)c1ccc(C(=O)Nc2cccc(C(=O)N3CCOCC3)c2)cc1 | active: 8.2 µM |
| COc1cccc2c1CCc1c-2nc2ccccc2c1C(=O)O | inconclusive: 9.2 µM [activator, partial curve] |
| COc1ccc(C2Sc3ccccc3NC3=C2C(=O)c2ccccc23)c(OC)c1OC (stereo unspecified) | inconclusive: 0.206 µM [activator, full curve, poor fit] |

Structural class: the compounds so far containing a nitro group on carbon

| SMILES | Potency |
| --- | --- |
| Cc1ccc(NC(=O)COc2ccccc2[N+](=O)[O-])nc1 | inconclusive: 1.3 µM [activator, full curve] |
| CN(CC1CCCO1)S(=O)(=O)c1ccc(C(=O)Nc2ccc([N+](=O)[O-])cc2)cc1 (stereo unspecified) | inconclusive: 29.1 µM [falling, single point] |
| COc1ccccc1NS(=O)(=O)c1ccc(NN=C2CCCCC2)c([N+](=O)[O-])c1 | inconclusive: 25.9 µM [falling, single point] |
